{"source": "PubChem BioAssay AID248", "about": "(DTP/NCI, 2004)", "tested_on": "L1210 leukemia ip in BDF1 mice, survival T/C", "assay": "NCI In Vivo Anticancer Drug Screen. Data for tumor model L1210 Leukemia (intraperitoneal) in B6D2F1 (BDF1) mice", "conditions": "T/C endpoint: mean survival time, higher T/C = longer survival", "key": {"[1]": {"conditions": "dose: 200.0 mg/kg/injection, schedule: Q04DX002 (ip), vehicle: saline with Tween-80"}, "[2]": {"conditions": "dose: 100.0 mg/kg/injection, schedule: Q04DX002 (ip), vehicle: saline with Tween-80"}, "[3]": {"conditions": "dose: 400.0 mg/kg/injection, schedule: Q04DX002 (ip), vehicle: saline with Tween-80"}, "[4]": {"conditions": "dose: 400.0 mg/kg/injection, schedule: Q04DX003 (ip), vehicle: saline"}}, "note": "The list does not hold the whole screen: it gathers tests that were run many times, whatever their T/C, doses with no T/C, and many T/C values between a quarter and a half above the control. Other doses and runs of a compound stand elsewhere. T/C gives the treated animals as a percentage of the vehicle group. Some entries give survivors of the animals treated and no T/C: the source holds a T/C of zero for them, seemingly a mark for toxic or unscored doses. Some doses without a T/C left all or most animals alive at the check, yet need not have been tolerated: the source hardly ever lists a survival T/C far under the control, and the zero likely stands for such cases as well. Counts of survivors are from the toxicity check (mostly the fifth day) where no day follows; animals may have died later. Schedule codes are those of the source, taken here to give the interval after Q, in days (D) or hours (H), and the number of doses after X. For survival time, this PubChem deposit counts one and a half times the control or more as active, and values a quarter to a half above the control carry no call in these data; other NCI protocols may use other cut-offs.", "data": [{"smiles": "COc1ccc(/C(N=Nc2ccccc2)=N/N=C(N)N)cc1", "values": [{"measurement": "survivor count", "setting": "dose: 100.0 mg/kg/injection, schedule: Q01DX001 (ip), vehicle: steroid suspending solution", "result": "3 of 6"}, {"measurement": "survivor count", "setting": "dose: 200.0 mg/kg/injection, schedule: Q01DX001 (ip), vehicle: steroid suspending solution", "result": "1 of 6"}, {"measurement": "survivor count", "setting": "dose: 400.0 mg/kg/injection, schedule: Q01DX001 (ip), vehicle: steroid suspending solution", "result": "2 of 6"}]}, {"smiles": "c1cc[c]([Pb]([S]c2nc3ccccc3[nH]2)([c]2ccccc2)[c]2ccccc2)cc1", "values": [{"measurement": "survivor count", "setting": "dose: 25.0 mg/kg/injection, schedule: Q04DX002 (ip), vehicle: gum acacia", "result": "3 of 3"}, {"measurement": "survivor count", "setting": "dose: 50.0 mg/kg/injection, schedule: Q04DX002 (ip), vehicle: gum acacia", "result": "1 of 3"}, {"measurement": "survivor count", "setting": "dose: 100.0 mg/kg/injection, schedule: Q04DX002 (ip), vehicle: gum acacia", "result": "1 of 3"}, {"measurement": "survivor count", "setting": "dose: 200.0 mg/kg/injection, schedule: Q04DX002 (ip), vehicle: gum acacia", "result": "1 of 3"}, {"measurement": "survivor count", "setting": "dose: 400.0 mg/kg/injection, schedule: Q04DX002 (ip), vehicle: gum acacia", "result": "0 of 3"}]}, {"smiles": "Cc1cccn2ncnc12", "values": [{"measurement": "survivor count", "setting": "dose: 400.0 mg/kg/injection, schedule: Q01DX001 (ip), vehicle: alcohol", "result": "0 of 6"}]}, {"smiles": "COc1ccc(Nc2ccnc3cc(Cl)ccc23)cc1CN(CCCl)CCCl", "values": [{"measurement": "survivor count", "setting": "dose: 5.0 mg/kg/injection, schedule: Q01DX009 (ip), vehicle: Klucel (hydroxypropylcellulose) (HPC)", "result": "6 of 6"}, {"measurement": "survivor count", "setting": "dose: 6.25 mg/kg/injection, schedule: Q04DX003 (ip), vehicle: saline", "result": "4 of 6"}, {"measurement": "survivor count", "setting": "dose: 10.0 mg/kg/injection, schedule: Q01DX009 (ip), vehicle: Klucel (hydroxypropylcellulose) (HPC)", "result": "0 of 6"}, {"measurement": "survivor count", "setting": "dose: 20.0 mg/kg/injection, schedule: Q01DX001 (ip), vehicle: Klucel (hydroxypropylcellulose) (HPC)", "result": "5 of 6"}, {"measurement": "survivor count", "setting": "dose: 20.0 mg/kg/injection, schedule: Q04DX003 (ip), vehicle: Klucel (hydroxypropylcellulose) (HPC)", "result": "5 of 6"}, {"measurement": "survivor count", "setting": "dose: 100.0 mg/kg/injection, schedule: Q01DX001 (ip), vehicle: carboxymethylcellulose (CMC)", "result": "4 of 4"}, {"measurement": "survivor count", "setting": "dose: 100.0 mg/kg/injection, schedule: Q04DX003 (ip), vehicle: Klucel (hydroxypropylcellulose) (HPC)", "result": "2 of 6"}, {"measurement": "survivor count", "setting": "dose: 200.0 mg/kg/injection, schedule: Q01DX001 (ip), vehicle: carboxymethylcellulose (CMC)", "result": "4 of 4"}, {"measurement": "survivor count", "setting": "dose: 200.0 mg/kg/injection, schedule: Q04DX003 (ip), vehicle: Klucel (hydroxypropylcellulose) (HPC)", "result": "0 of 6"}, {"measurement": "survivor count", "setting": "dose: 400.0 mg/kg/injection, schedule: Q01DX001 (ip), vehicle: carboxymethylcellulose (CMC)", "result": "1 of 4"}, {"measurement": "survivor count", "setting": "dose: 400.0 mg/kg/injection, schedule: Q04DX003 (ip), vehicle: Klucel (hydroxypropylcellulose) (HPC)", "result": "0 of 6"}]}, {"smiles": "COc1cccc(/C=C/c2cnc3ccccc3n2)c1OC", "values": [{"measurement": "survivor count", "setting": "dose: 200.0 mg/kg/injection, schedule: Q01DX009 (ip), vehicle: Klucel (hydroxypropylcellulose) (HPC)", "result": "6 of 6"}]}, {"smiles": "CCCCC#C/C(C)=N\\Nc1ccc([N+](=O)[O-])cc1[N+](=O)[O-]", "values": [{"measurement": "survivor count", "setting": "[1]", "result": "3 of 3"}]}, {"smiles": "CCN1CCS/C1=C\\C=C\\C1=[N+](CC)CCS1", "values": [{"measurement": "survivor count", "setting": "dose: 9.5 mg/kg/injection, schedule: Q01DX001 (ip), vehicle: other", "result": "0 of 6"}, {"measurement": "survivor count", "setting": "dose: 19.0 mg/kg/injection, schedule: Q01DX001 (ip), vehicle: other", "result": "0 of 6"}, {"measurement": "survivor count", "setting": "dose: 38.0 mg/kg/injection, schedule: Q01DX001 (ip), vehicle: other", "result": "0 of 6"}]}, {"smiles": "O=c1[nH]cnc2c1ncn2Cc1ccc([N+](=O)[O-])cc1", "values": [{"measurement": "survivor count", "setting": "dose: 400.0 mg/kg/injection, schedule: Q01DX001 (ip), vehicle: other", "result": "3 of 6"}]}, {"smiles": "O=c1oc(-c2ccco2)nc2ccccc12", "values": [{"measurement": "survivor count", "setting": "dose: 400.0 mg/kg/injection, schedule: Q01DX009 (ip), vehicle: Klucel (hydroxypropylcellulose) (HPC)", "result": "3 of 6"}]}, {"smiles": "Nc1ccc(I)cc1", "values": [{"measurement": "survivor count", "setting": "dose: 400.0 mg/kg/injection, schedule: Q04DX003 (ip), vehicle: saline with Tween-80", "result": "6 of 6"}]}, {"smiles": "CSC(=O)C(C)(C)C", "values": [{"measurement": "survivor count", "setting": "dose: 300.0 mg/kg/injection, schedule: Q01DX001 (ip), vehicle: saline", "result": "1 of 6"}]}, {"smiles": "NC(=S)c1cccc(OCCc2ccccc2)c1", "values": [{"measurement": "survivor count", "setting": "dose: 400.0 mg/kg/injection, schedule: Q01DX001 (ip), vehicle: saline with Tween-80", "result": "0 of 6"}]}, {"smiles": "CC1(C)CCC(NC(=O)NCCF)CC1", "values": [{"measurement": "survivor count", "setting": "dose: 75.0 mg/kg/injection, schedule: Q01DX001 (ip), vehicle: other", "result": "0 of 6"}, {"measurement": "survivor count", "setting": "dose: 150.0 mg/kg/injection, schedule: Q01DX001 (ip), vehicle: other", "result": "0 of 6"}, {"measurement": "survivor count", "setting": "dose: 300.0 mg/kg/injection, schedule: Q01DX001 (ip), vehicle: other", "result": "0 of 6"}]}, {"smiles": "COC(=O)C12OCC34C(CC5C(C)=C(O)C(=O)CC5(C)C3C(O)C1O)OC(=O)C(OC(=O)C=C(C)C)C24", "note": "(stereo unspecified)", "values": [{"measurement": "survivor count", "setting": "dose: 6.25 mg/kg/injection, schedule: Q04DX002 (ip), vehicle: saline with Tween-80", "result": "1 of 3"}, {"measurement": "survivor count", "setting": "dose: 12.5 mg/kg/injection, schedule: Q04DX002 (ip), vehicle: saline with Tween-80", "result": "0 of 3"}, {"measurement": "survivor count", "setting": "dose: 25.0 mg/kg/injection, schedule: Q04DX002 (ip), vehicle: saline with Tween-80", "result": "0 of 3"}, {"measurement": "survivor count", "setting": "[2]", "result": "0 of 3"}, {"measurement": "survivor count", "setting": "[1]", "result": "0 of 3"}, {"measurement": "survivor count", "setting": "[3]", "result": "0 of 3"}]}, {"smiles": "CN(C)CCCC1c2ccccc2Oc2ccc(C(F)(F)F)cc21", "note": "(stereo unspecified)", "values": [{"measurement": "survivor count", "setting": "dose: 50.0 mg/kg/injection, schedule: Q04DX003 (ip), vehicle: saline", "result": "1 of 4"}, {"measurement": "survivor count", "setting": "dose: 100.0 mg/kg/injection, schedule: Q01DX009 (ip), vehicle: saline", "result": "2 of 6"}, {"measurement": "survivor count", "setting": "dose: 100.0 mg/kg/injection, schedule: Q04DX003 (ip), vehicle: saline", "result": "0 of 4"}, {"measurement": "survivor count", "setting": "dose: 200.0 mg/kg/injection, schedule: Q01DX009 (ip), vehicle: saline", "result": "0 of 6"}, {"measurement": "survivor count", "setting": "dose: 200.0 mg/kg/injection, schedule: Q04DX003 (ip), vehicle: saline", "result": "0 of 4"}, {"measurement": "survivor count", "setting": "dose: 400.0 mg/kg/injection, schedule: Q01DX009 (ip), vehicle: saline", "result": "0 of 6"}, {"measurement": "survivor count", "setting": "[4]", "result": "0 of 4"}]}, {"smiles": "O=C1Nc2ccccc2/C1=C/Cl", "values": [{"measurement": "survivor count", "setting": "[2]", "result": "0 of 3"}, {"measurement": "survivor count", "setting": "[1]", "result": "0 of 3"}, {"measurement": "survivor count", "setting": "[3]", "result": "0 of 3"}]}, {"smiles": "O=C1c2cccc([N+](=O)[O-])c2C(=O)N1c1ncn[nH]1", "values": [{"measurement": "T/C", "setting": "dose: 100.0 mg/kg/injection, schedule: Q01DX001 (ip), vehicle: saline", "result": "135 % of control"}, {"measurement": "survivor count", "setting": "dose: 150.0 mg/kg/injection, schedule: Q01DX001 (ip), vehicle: saline", "result": "4 of 4"}]}, {"smiles": "Cc1cc(C)c2ccc(NC(=O)CCC(=O)O)nc2n1", "values": [{"measurement": "survivor count", "setting": "dose: 200.0 mg/kg/injection, schedule: Q01DX001 (ip), vehicle: saline", "result": "2 of 6"}, {"measurement": "survivor count", "setting": "dose: 400.0 mg/kg/injection, schedule: Q01DX001 (ip), vehicle: saline", "result": "2 of 6"}]}, {"smiles": "CCc1cc(/C=C2\\C(=O)C=Cc3ccccc32)c(O)s1", "values": [{"measurement": "survivor count", "setting": "[1]", "result": "3 of 3"}]}, {"smiles": "CCCNC(=O)Oc1ccc(C2CCCCC2)cc1", "values": [{"measurement": "survivor count", "setting": "dose: 400.0 mg/kg/injection, schedule: Q04DX002 (ip), vehicle: Klucel (hydroxypropylcellulose) (HPC)", "result": "3 of 3"}]}, {"smiles": "CCCCNC(c1ccccc1)=[N+]1C(C)CCCC1C", "note": "(stereo unspecified)", "values": [{"measurement": "survivor count", "setting": "dose: 25.0 mg/kg/injection, schedule: Q04DX002 (ip), vehicle: saline", "result": "0 of 3"}, {"measurement": "survivor count", "setting": "dose: 50.0 mg/kg/injection, schedule: Q04DX002 (ip), vehicle: saline", "result": "0 of 3"}, {"measurement": "survivor count", "setting": "dose: 100.0 mg/kg/injection, schedule: Q04DX002 (ip), vehicle: saline", "result": "3 of 3"}, {"measurement": "survivor count", "setting": "dose: 200.0 mg/kg/injection, schedule: Q04DX002 (ip), vehicle: saline", "result": "2 of 3"}, {"measurement": "survivor count", "setting": "dose: 400.0 mg/kg/injection, schedule: Q04DX002 (ip), vehicle: saline", "result": "3 of 3"}]}, {"smiles": "CC(=O)OC1CC2CCC1(C)C2(C)C", "note": "(stereo unspecified)", "values": [{"measurement": "survivor count", "setting": "[4]", "result": "0 of 6"}]}]}
